# Measured values: the supplement of paper PMC6411743
# Chains of the proteins cited; added tags and fusions are not shown. Lines headed by an entry give the natural chain unless they say otherwise; changes in a name come on top.
# UniProt P30153, whole entry: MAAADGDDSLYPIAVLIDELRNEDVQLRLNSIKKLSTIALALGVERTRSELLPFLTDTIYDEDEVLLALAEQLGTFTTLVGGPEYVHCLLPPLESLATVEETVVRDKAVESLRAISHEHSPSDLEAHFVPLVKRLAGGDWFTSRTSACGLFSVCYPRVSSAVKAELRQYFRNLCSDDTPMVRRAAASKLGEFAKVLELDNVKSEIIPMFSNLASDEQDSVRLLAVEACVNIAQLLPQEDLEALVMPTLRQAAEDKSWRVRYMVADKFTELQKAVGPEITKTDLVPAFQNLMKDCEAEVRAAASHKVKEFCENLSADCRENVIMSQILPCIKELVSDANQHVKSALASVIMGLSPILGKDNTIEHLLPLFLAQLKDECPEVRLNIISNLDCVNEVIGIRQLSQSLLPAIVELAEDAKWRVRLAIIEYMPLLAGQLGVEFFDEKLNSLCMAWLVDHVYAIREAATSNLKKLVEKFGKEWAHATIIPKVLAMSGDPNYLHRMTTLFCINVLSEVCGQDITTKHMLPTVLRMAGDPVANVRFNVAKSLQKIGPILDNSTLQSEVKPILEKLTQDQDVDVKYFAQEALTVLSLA
# UniProt P20042, whole entry: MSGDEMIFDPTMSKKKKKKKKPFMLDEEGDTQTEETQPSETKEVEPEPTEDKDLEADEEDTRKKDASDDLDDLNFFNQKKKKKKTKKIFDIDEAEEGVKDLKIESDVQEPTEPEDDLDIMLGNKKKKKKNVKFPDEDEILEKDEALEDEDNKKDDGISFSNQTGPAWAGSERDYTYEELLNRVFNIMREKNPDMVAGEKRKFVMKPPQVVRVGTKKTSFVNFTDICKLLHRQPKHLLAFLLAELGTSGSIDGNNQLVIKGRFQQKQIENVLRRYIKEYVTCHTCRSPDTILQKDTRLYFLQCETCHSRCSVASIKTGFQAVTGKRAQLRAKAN
# UniProt P35249, whole entry: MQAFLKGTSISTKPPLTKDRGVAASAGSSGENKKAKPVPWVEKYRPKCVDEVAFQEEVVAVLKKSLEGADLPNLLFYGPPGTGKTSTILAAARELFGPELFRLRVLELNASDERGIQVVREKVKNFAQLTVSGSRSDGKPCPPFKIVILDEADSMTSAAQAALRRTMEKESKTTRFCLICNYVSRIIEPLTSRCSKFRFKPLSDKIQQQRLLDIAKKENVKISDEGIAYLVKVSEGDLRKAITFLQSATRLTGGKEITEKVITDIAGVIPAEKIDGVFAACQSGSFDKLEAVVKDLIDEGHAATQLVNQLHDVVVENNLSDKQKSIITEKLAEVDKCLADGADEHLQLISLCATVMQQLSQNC
# UniProt P28074: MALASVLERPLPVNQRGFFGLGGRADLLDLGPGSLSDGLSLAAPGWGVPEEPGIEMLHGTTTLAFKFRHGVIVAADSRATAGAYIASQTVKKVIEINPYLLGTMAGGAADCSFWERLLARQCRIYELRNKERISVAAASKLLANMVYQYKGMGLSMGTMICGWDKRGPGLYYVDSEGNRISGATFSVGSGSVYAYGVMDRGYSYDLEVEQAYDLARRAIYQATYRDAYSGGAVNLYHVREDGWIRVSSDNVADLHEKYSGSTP
# UniProt P31930: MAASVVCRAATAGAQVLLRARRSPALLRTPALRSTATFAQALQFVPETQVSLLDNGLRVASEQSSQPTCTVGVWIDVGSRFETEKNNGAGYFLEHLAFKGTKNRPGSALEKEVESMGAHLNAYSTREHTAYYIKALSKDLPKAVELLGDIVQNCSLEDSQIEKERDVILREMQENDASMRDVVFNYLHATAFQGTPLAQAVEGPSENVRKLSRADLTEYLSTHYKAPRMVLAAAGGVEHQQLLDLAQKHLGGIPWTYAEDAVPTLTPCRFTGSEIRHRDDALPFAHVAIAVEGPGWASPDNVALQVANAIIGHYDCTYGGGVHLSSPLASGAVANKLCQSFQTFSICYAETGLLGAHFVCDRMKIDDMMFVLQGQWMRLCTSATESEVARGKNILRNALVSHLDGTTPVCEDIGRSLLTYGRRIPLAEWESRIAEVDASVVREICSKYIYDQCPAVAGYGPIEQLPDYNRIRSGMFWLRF
# UniProt P35611: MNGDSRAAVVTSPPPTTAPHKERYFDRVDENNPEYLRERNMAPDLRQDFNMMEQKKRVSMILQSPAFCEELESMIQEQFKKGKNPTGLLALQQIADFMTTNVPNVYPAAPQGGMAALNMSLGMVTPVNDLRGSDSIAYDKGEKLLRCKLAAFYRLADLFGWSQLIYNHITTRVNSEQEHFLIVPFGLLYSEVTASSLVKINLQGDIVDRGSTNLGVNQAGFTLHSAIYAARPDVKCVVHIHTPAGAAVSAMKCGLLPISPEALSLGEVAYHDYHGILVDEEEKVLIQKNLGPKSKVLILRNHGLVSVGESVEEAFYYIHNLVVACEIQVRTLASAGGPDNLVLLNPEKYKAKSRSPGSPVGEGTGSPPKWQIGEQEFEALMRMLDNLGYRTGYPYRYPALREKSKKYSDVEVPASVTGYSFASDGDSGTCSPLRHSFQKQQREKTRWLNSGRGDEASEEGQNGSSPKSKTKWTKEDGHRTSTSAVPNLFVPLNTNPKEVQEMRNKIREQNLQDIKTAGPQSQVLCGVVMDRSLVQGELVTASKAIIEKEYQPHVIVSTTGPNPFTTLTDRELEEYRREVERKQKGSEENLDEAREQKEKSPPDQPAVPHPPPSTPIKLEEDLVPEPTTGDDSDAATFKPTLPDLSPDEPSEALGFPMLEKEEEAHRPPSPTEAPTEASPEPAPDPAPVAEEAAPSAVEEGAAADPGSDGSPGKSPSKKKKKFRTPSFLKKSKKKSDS
# UniProt P25325: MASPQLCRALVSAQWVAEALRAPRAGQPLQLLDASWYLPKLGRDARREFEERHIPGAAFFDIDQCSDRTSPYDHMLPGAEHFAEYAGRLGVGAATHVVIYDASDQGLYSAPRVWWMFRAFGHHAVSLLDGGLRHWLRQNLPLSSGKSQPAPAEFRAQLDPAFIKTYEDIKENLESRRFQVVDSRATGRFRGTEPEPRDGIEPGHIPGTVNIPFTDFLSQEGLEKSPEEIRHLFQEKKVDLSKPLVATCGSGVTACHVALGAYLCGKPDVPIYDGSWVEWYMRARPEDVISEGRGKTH
# UniProt P19634, whole entry: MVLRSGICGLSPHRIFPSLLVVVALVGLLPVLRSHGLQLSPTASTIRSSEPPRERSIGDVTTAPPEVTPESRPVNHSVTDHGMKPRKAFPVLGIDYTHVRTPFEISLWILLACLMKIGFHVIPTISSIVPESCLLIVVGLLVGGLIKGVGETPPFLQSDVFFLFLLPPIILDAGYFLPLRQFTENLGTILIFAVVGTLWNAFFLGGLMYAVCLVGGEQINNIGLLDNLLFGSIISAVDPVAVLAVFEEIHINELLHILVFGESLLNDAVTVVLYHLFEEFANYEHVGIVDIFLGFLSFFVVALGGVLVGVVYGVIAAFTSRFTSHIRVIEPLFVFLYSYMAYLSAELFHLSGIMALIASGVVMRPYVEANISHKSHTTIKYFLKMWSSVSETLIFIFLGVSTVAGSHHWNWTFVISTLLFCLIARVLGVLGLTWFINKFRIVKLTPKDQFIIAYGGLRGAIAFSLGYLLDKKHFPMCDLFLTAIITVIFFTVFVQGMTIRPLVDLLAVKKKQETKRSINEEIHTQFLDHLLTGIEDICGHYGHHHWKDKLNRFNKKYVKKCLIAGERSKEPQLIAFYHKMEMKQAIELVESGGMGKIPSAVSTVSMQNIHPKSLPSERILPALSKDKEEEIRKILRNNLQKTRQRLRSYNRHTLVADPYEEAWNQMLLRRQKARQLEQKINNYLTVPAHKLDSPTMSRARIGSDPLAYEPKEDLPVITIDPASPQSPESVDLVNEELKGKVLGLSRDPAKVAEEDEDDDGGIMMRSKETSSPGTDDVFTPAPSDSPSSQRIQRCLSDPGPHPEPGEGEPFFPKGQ
# UniProt P27707: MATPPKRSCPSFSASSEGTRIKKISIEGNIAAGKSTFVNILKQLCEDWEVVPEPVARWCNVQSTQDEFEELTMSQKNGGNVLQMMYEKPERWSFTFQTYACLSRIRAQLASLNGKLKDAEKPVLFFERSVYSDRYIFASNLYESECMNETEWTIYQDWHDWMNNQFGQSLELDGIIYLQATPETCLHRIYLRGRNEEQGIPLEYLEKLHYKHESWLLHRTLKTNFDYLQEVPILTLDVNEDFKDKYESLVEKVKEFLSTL
# UniProt P18583: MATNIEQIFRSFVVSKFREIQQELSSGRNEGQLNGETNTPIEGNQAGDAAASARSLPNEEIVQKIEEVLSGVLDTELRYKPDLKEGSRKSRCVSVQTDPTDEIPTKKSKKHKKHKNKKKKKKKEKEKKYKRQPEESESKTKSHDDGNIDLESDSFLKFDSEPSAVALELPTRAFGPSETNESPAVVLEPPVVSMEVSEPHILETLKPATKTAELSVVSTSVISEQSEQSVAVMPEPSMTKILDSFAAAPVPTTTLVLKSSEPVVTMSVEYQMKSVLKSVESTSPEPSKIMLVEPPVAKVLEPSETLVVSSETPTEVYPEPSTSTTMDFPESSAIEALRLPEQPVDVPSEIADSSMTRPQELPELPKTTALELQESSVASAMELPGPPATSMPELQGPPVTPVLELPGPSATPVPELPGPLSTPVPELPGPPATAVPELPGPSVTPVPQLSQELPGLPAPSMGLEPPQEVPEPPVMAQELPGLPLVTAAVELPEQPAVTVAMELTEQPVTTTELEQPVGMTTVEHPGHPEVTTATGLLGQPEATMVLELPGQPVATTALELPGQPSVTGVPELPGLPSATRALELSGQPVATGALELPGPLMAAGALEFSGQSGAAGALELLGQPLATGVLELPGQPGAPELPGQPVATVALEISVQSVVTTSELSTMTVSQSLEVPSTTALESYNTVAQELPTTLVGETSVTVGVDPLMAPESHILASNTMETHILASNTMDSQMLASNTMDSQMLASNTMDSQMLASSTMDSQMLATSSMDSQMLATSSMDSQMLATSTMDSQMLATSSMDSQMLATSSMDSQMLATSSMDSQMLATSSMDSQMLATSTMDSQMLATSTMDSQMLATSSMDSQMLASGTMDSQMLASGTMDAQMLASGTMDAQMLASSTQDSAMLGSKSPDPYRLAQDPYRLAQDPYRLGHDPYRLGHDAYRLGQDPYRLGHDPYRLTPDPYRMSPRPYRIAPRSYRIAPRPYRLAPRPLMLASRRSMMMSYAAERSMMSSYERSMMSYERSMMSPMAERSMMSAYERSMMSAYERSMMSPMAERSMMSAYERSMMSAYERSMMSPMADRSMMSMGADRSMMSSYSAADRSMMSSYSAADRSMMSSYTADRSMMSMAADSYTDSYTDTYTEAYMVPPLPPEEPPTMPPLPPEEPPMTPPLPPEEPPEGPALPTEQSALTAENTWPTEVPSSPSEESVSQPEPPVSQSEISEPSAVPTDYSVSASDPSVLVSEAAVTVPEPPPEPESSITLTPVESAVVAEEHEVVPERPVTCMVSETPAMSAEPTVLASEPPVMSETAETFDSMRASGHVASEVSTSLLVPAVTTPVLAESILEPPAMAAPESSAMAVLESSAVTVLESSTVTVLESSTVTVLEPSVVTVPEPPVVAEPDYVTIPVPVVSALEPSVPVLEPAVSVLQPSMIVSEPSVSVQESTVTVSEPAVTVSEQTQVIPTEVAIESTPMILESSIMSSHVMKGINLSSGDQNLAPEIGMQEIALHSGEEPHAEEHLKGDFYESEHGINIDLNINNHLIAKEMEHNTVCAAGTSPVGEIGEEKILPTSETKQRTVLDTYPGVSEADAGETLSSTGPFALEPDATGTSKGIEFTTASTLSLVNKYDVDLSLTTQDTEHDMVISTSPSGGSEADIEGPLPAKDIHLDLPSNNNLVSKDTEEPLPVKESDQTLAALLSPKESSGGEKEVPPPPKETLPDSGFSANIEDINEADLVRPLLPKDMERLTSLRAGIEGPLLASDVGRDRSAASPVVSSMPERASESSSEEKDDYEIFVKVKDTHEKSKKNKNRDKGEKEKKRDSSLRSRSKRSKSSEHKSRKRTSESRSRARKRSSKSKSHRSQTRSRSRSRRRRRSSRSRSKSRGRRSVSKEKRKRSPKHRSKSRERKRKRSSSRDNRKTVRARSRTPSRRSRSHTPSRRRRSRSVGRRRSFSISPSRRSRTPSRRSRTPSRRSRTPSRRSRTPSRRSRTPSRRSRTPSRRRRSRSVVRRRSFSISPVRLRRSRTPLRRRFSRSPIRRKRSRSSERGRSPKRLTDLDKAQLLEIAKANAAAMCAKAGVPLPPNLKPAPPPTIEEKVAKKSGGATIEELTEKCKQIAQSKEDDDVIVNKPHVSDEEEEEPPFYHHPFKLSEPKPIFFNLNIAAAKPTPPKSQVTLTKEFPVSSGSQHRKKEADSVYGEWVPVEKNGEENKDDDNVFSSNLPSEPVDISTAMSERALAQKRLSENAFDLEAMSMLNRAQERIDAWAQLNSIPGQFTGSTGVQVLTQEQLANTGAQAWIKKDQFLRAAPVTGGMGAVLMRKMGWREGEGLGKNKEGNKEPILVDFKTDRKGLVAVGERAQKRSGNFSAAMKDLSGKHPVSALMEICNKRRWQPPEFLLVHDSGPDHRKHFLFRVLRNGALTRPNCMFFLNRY
# ± gives the standard deviation of the averaged measurements. Only a part is listed here, and it is no random draw. Most entries show no effect beyond the scatter of the controls.
# Compound: Nc1ncnc2c1ncn2[C@@H]1O[C@H](COP(=O)(O)OP(=O)(O)OP(=O)(O)O)[C@@H](O)[C@H]1O [adenosine triphosphate]
# Assay: NP40-soluble protein abundance relative to vehicle (solubility fold change) (ratio); higher = more soluble protein in presence of ATP
# Summary of the method: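 Values are fold changes against the detergent-processed vehicle, based on vsn-normalised intensities. Jurkat crude lysate was treated at eight concentrations from 0.1 to 10 mM (10 min at room temperature, then 3 min at 37 °C), solubilised with 0.8% NP40 and benzonase, ultracentrifuged and analysed by TMT-labelled LC-MS/MS over three independent experiments.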
Target,NP40-soluble protein abundance (concentration: 0.1mM),NP40-soluble protein abundance (concentration: 0.5mM),NP40-soluble protein abundance (concentration: 1mM),NP40-soluble protein abundance (concentration: 2mM),NP40-soluble protein abundance (concentration: 4mM),NP40-soluble protein abundance (concentration: 6mM),NP40-soluble protein abundance (concentration: 8mM),NP40-soluble protein abundance (concentration: 10mM)
PPP2R1A (UniProt P30153),0.979 ± 0.025,0.965 ± 0.033,,,,,,
AKT1 (UniProt P31749),1.05 ± 0.1,1.05 ± 0.094,,,,,,
EIF2S2 (UniProt P20042),0.9739 ± 0.0085,1.03 ± 0.025,,,,,,
ZNF22 (UniProt P17026),1.1 ± 0.12,1.08 ± 0.055,,,,,,
UniProt P30044 and related entries,0.999 ± 0.03,0.959 ± 0.069,,,,,,
RFC4 (UniProt P35249),1.05 ± 0.046,1.14 ± 0.011,,,,,,
UniProt P24666 and related entries,0.997 ± 0.038,0.955 ± 0.03,,,,,,
UniProt P17041,0.971 ± 0.016,1 ± 0.029,,,,,,
PSMB5 (UniProt P28074),0.965 ± 0.057,0.964 ± 0.031,,,,,,
UQCRC1 (UniProt P31930),1.034 ± 0.0098,1.03 ± 0.05,,,,,,
UniProt P25786 and related entries,0.976 ± 0.029,0.962 ± 0.014,,,,,,
RPL12 (UniProt P30050),0.913 ± 0.069,0.916 ± 0.086,,,,,,
UniProt P35611 and related entries,0.984 ± 0.019,0.988 ± 0.027,,,,,,
NMT1 (UniProt P30419),1.01 ± 0.025,1.07 ± 0.059,,,,,,
UniProt P25325 and related entries,1.03 ± 0.079,1.09 ± 0.096,,,,,,
UniProt P35606 and related entries,1.04 ± 0.068,1.04 ± 0.039,,,,,,
MAN1A1 (UniProt P33908),0.9553 ± 0.0086,0.992 ± 0.019,,,,,,
UniProt P17480 and related entries,1.024 ± 0.0093,1.083 ± 0.0011,,,,,,
UniProt P19367 and related entries,1.04 ± 0.059,1.03 ± 0.034,,,,,,
SLC9A1 (UniProt P19634),0.98 ± 0.066,0.962 ± 0.021,,,,,,

Target,NP40-soluble protein abundance (concentration: 0.1mM),NP40-soluble protein abundance (concentration: 0.5mM),NP40-soluble protein abundance (concentration: 1mM),NP40-soluble protein abundance (concentration: 2mM),NP40-soluble protein abundance (concentration: 4mM),NP40-soluble protein abundance (concentration: 6mM),NP40-soluble protein abundance (concentration: 8mM),NP40-soluble protein abundance (concentration: 10mM)
SRM (UniProt P19623),1.06 ± 0.11,1.05 ± 0.068,1.03 ± 0.12,1.01 ± 0.1,1 ± 0.083,0.929 ± 0.12,0.998 ± 0.071,0.997 ± 0.068
NKTR (UniProt P30414),1.06 ± 0.11,1.4 ± 0.094,1.53 ± 0.25,1.63 ± 0.19,1.68 ± 0.23,1.83 ± 0.22,1.75 ± 0.19,1.75 ± 0.22
PEBP1 (UniProt P30086),0.987 ± 0.018,0.982 ± 0.043,,,,,,
UniProt P26368 and related entries,1.22 ± 0.058,1.92 ± 0.096,1.96 ± 0.078,1.99 ± 0.078,2.01 ± 0.076,2.06 ± 0.032,2.11 ± 0.079,2.09 ± 0.12
CHM (UniProt P24386),1 ± 0.065,1.04 ± 0.063,,,,,,
ATF1 (UniProt P18846),1.05 ± 0.082,0.945 ± 0.056,0.986 ± 0.2,0.951 ± 0.033,1.02 ± 0.14,0.999 ± 0.054,0.97 ± 0.074,0.917 ± 0.068
DCK (UniProt P27707),0.99 ± 0.074,1.04 ± 0.053,0.955 ± 0.067,0.98 ± 0.052,0.914 ± 0.046,0.935 ± 0.093,0.933 ± 0.03,0.948 ± 0.044
CCNA2 (UniProt P20248),0.992 ± 0.06,1.02 ± 0.028,0.998 ± 0.059,0.977 ± 0.027,0.993 ± 0.017,1.03 ± 0.046,0.9881 ± 0.0022,0.995 ± 0.05
SFPQ (UniProt P23246),1.04 ± 0.02,1.08 ± 0.058,1.125 ± 0.0082,1.302 ± 0.0053,1.67 ± 0.042,1.72 ± 0.18,1.81 ± 0.11,1.68 ± 0.17
UniProt P29728-2|A0A087X0V5|P29728,1.13 ± 0.02,1.58 ± 0.04,1.73 ± 0.11,1.65 ± 0.019,1.7 ± 0.046,1.55 ± 0.12,1.74 ± 0.042,1.68 ± 0.047
UniProt P26639,1.05 ± 0.092,1.05 ± 0.07,1 ± 0.1,0.988 ± 0.075,0.95 ± 0.078,0.928 ± 0.11,0.989 ± 0.054,0.949 ± 0.042
GBP1 (UniProt P32455),0.995 ± 0.012,0.999 ± 0.068,0.968 ± 0.053,0.96 ± 0.0051,0.945 ± 0.011,0.979 ± 0.015,0.922 ± 0.018,0.936 ± 0.03
YY1 (UniProt P25490),1.02 ± 0.028,1.02 ± 0.035,,,,,,
GSTM2 (UniProt P28161),0.974 ± 0.095,0.992 ± 0.045,0.96 ± 0.07,0.952 ± 0.054,0.886 ± 0.043,0.889 ± 0.035,0.911 ± 0.058,0.861 ± 0.056
UniProt P25398,0.907 ± 0.066,0.892 ± 0.021,0.879 ± 0.058,0.861 ± 0.073,0.813 ± 0.071,0.817 ± 0.087,0.761 ± 0.043,0.779 ± 0.061
SOAT1 (UniProt P35610),1.09 ± 0.024,1.04 ± 0.072,1.02 ± 0.042,1 ± 0.028,0.999 ± 0.055,0.97 ± 0.029,1.03 ± 0.019,0.971 ± 0.041
UniProt P18858 and related entries,1 ± 0.028,1.02 ± 0.04,,,,,,
FBL (UniProt P22087),1.07 ± 0.092,1.031 ± 0.0065,1.11 ± 0.075,1.13 ± 0.058,1.25 ± 0.047,1.544 ± 0.0074,1.93 ± 0.025,2.51 ± 0.15
UniProt P28908 and related entries,1.06 ± 0.078,0.973 ± 0.068,0.986 ± 0.073,0.999 ± 0.0037,1.08 ± 0.13,0.992 ± 0.073,0.951 ± 0.041,0.964 ± 0.026
UniProt P33121 and related entries,1.08 ± 0.066,1.06 ± 0.096,,,,,,

Target,NP40-soluble protein abundance (concentration: 0.1mM),NP40-soluble protein abundance (concentration: 0.5mM),NP40-soluble protein abundance (concentration: 1mM),NP40-soluble protein abundance (concentration: 2mM),NP40-soluble protein abundance (concentration: 4mM),NP40-soluble protein abundance (concentration: 6mM),NP40-soluble protein abundance (concentration: 8mM),NP40-soluble protein abundance (concentration: 10mM)
UniProt P19838 and related entries,1.07 ± 0.068,1.04 ± 0.06,,,,,,
UniProt P31327 and related entries,1.02 ± 0.14,0.969 ± 0.12,,,,,,
UniProt P23511 and related entries,0.899 ± 0.024,0.945 ± 0.058,,,,,,
UniProt P32321 and related entries,0.987 ± 0.027,0.921 ± 0.078,,,,,,
UniProt P26358 and related entries,1.03 ± 0.039,1.03 ± 0.051,,,,,,
AGA (UniProt P20933),0.911 ± 0.091,0.874 ± 0.075,0.925 ± 0.059,0.964 ± 0.07,0.978 ± 0.079,0.94 ± 0.081,0.914 ± 0.064,0.876 ± 0.071
XPA (UniProt P23025),0.965 ± 0.018,1.03 ± 0.053,0.975 ± 0.021,0.979 ± 0.033,0.965 ± 0.054,1.02 ± 0.027,0.954 ± 0.1,0.968 ± 0.05
AGL (UniProt P35573),1.04 ± 0.069,1.05 ± 0.048,,,,,,
UniProt P18583 and related entries,1.05 ± 0.056,1.21 ± 0.046,1.28 ± 0.057,1.3 ± 0.075,1.36 ± 0.099,1.49 ± 0.14,1.45 ± 0.095,1.55 ± 0.13
UniProt P35251 and related entries,1.059 ± 0.01,1.17 ± 0.058,1.23 ± 0.086,1.36 ± 0.093,1.45 ± 0.1,1.58 ± 0.11,1.51 ± 0.069,1.56 ± 0.084
CTH (UniProt P32929),1.06 ± 0.099,1.01 ± 0.063,,,,,,
GCSH (UniProt P23434),0.972 ± 0.058,0.96 ± 0.042,0.985 ± 0.048,0.971 ± 0.024,0.986 ± 0.051,1.03 ± 0.05,0.915 ± 0.051,0.927 ± 0.092
CD53 (UniProt P19397),0.84 ± 0.11,0.784 ± 0.13,0.898 ± 0.042,0.833 ± 0.05,0.85 ± 0.06,0.832 ± 0.049,0.823 ± 0.07,0.791 ± 0.093
UniProt P21675 and related entries,1.05 ± 0.059,1.14 ± 0.081,1.11 ± 0.067,1.11 ± 0.048,1.11 ± 0.066,1.15 ± 0.14,1.2 ± 0.079,1.19 ± 0.091
UniProt P30048 and related entries,1 ± 0.042,1.03 ± 0.027,,,,,,
UniProt P29401 and related entries,1.03 ± 0.057,1.05 ± 0.059,,,,,,
JAK1 (UniProt P23458),1.143 ± 0.01,1.18 ± 0.016,1.21 ± 0.015,1.21 ± 0.022,1.23 ± 0.032,1.16 ± 0.043,1.27 ± 0.047,1.26 ± 0.041
ABCD3 (UniProt P28288),1.06 ± 0.08,1.07 ± 0.08,,,,,,

# Whole records as entered above:
# UniProt P25325 and related entries as listed: NP40-soluble protein abundance (concentration: 0.1mM): 1.03 ± 0.079; NP40-soluble protein abundance (concentration: 0.5mM): 1.09 ± 0.096
# UniProt P35606 and related entries as listed: NP40-soluble protein abundance (concentration: 0.1mM): 1.04 ± 0.068; NP40-soluble protein abundance (concentration: 0.5mM): 1.04 ± 0.039
